No constants are given. Whether binding was seen depends on the method and setting.
How the values were obtained:
[1] = molecular target: Cytochrome c′ from Alcaligenes xylosoxidans NCIMB 11015 (Alcaligenes xylosoxidans NCIMB 11015) (UniProt P00138); assay: small-angle neutron scattering (SANS); 5.5 mg/mL Cyt c′ in D2O, phosphate buffer with DCl, pD 1.7; KWS-1 beam line; Debye function fit; this sample is the standard for the MW ratios; both purified
[2] = molecular target: Cytochrome c′ from Alcaligenes xylosoxidans NCIMB 11015 (Alcaligenes xylosoxidans NCIMB 11015) (UniProt P00138); assay: small-angle neutron scattering (SANS); 5.3 mg/mL Cyt c′ in D2O, phosphate buffer with NaOD, pD ~13; KWS-1 beam line; MW ratio from I(0)/C against the pD 1.7 sample; joint-clubs model and ab initio bead model; both purified

B1: Cytochrome c′ from Alcaligenes xylosoxidans NCIMB 11015 (natural protein, UniProt P00138 1-127, looked up)
chain: QFAKPEDAVKYRQSALTLMASHFGRMTPVVKGQAPYDAAQIKANVEVLKTLSALPWAAFGPGTEGGDARPEIWSDAASFKQKQQAFQDNIVKLSAAADAGDLDKLRAAFGDVGASCKACHDAYRKKK
modifications: heme prosthetic group embedded in the C-terminal region
notes: Cytochrome c′ (c-type cytochrome, four-α-helix bundle) of Alcaligenes xylosoxidans NCIMB 11015; helices A(Ala3-Lys31), B(Asp37-Phe59), C(Ala76-Asp98), D(Asp103-Arg124); His120 axial ligand; crystal structures PDB 4WGZ and 4WGY are of the same protein; also called Cyt c′; Cyt c'
binding [1]: no binding (condition: at pD 1.7 (5.5 mg/mL))
binding [2]: no binding (condition: at pD ~13 (5.3 mg/mL))

— PMC8774185, “Open-Bundle Structure as the Unfolding Intermediate of Cytochrome c′ Revealed by Small Angle Neutron Scattering” (Biomolecules, 2022)
